Laboratory results from PubChem BioAssay AID1671190 (National Center for Advancing Translational Sciences (NCATS), 2021).
About 6,100 (1.1%) of roughly 580,000 compounds were called active. Inconclusive means that the source gave no clear call. Such entries were picked first, then a sample of the others. The call rests on the fitted dose curve; in most records, active means well fitted inhibition curve with a large enough effect; inconclusive means small, poorly fitted or top-dose-only effect, or another doubt; inactive means no such curve, though single readings can be large or run the other way. A potency beside an inconclusive call is a rough fit, not a confirmed value.

Chains of the proteins cited; added tags and fusions are not shown.
UniProt P18054, whole entry, looked up: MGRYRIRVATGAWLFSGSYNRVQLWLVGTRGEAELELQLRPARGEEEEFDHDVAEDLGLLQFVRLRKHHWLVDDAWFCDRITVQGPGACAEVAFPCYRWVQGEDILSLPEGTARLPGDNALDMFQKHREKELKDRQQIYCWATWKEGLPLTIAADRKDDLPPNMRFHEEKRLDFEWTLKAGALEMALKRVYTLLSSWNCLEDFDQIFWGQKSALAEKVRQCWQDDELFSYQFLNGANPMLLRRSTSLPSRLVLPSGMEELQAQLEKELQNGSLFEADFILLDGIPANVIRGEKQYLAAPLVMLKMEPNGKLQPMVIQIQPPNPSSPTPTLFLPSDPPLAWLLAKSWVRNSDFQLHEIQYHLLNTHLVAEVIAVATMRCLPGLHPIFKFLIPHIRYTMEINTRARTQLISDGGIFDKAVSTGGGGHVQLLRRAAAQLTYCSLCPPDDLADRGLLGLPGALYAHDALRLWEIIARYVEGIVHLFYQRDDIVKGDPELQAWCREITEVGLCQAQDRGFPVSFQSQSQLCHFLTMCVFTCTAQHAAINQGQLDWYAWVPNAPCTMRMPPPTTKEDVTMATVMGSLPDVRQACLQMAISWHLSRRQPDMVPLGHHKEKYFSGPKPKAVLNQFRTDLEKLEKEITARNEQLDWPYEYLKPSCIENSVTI

target: Polyunsaturated fatty acid lipoxygenase ALOX12 (Homo sapiens) (UniProt P18054); test: Primary qHTS assay for inhibitors of human arachidonate 12S-lipoxygenase (ALOX12): Round 2; settings: purified 12hLO, xylenol orange hydroperoxide absorbance; activity change, negative = inhibition: at 108 µM (top of the series) unless noted
Method in brief: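 Purified human 12hLO (150 nM final) in 25 mM Hepes, 0.01% Triton X-100, pH 7.0 was preincubated 15 min at room temperature with compound. Then 40 uM arachidonic acid was added, 30 min. Hydroperoxide was read by Fe-XO absorbance ratio 573/405 nm.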
On the % scale 0 is the no-effect control and ±100 the full control effect; potency means the concentration at half of the fitted maximal effect.

Compound	Potency	activity change, negative = inhibition
Cc1c(Br)cc(C(=O)O)c(C)c1C	inconclusive: 63.1 µM [inhibitor, partial curve, poor fit]	–
Cc1ccc(S(=O)(=O)NCC2(c3ccccc3)CCOCC2)cc1	inconclusive: 35.5 µM [inhibitor, single point]	–
CCN(CC(=O)NCc1ccc(F)cc1)C(=O)/C=C/c1ccco1	inconclusive: 31.6 µM [inhibitor, partial curve, poor fit]	–
CC(Oc1cc(-c2ccccc2)cc2ccccc12)C(=O)N1CCOCC1 (stereo not drawn)	–	inactive: 0%
COc1cccc([S+](=O)([O-])N2CCCC3(CC(Cc4ccccc4)=NO3)C2)c1 (stereo not drawn)	inconclusive: 6.31 µM [inhibitor, partial curve]	–
CC(C)C(=O)NC(C)c1ccc2c(c1)CCCC2 (stereo not drawn)	–	inactive: 39%
CN(C)c1ccc(C=Cc2ccnc3c(O)cccc23)cc1	active: 11.2 µM	–
COc1cc(CN2CCCC(CO)(Cc3cccc(Cl)c3)C2)cc(OC)c1O (stereo not drawn)	inconclusive: 0.316 µM [inhibitor, full curve, poor fit]	–
CCOC(=O)C1=NN(C(C)=O)C2(CC(=O)N(c3cc(C)cc(C)c3)C2=O)C1 (stereo not drawn)	–	inactive: -19.5%
Cc1ccc(N=Nc2c(=O)[nH]n3c(C)cc(C)nc23)cc1	inconclusive: 2 µM [inhibitor, partial curve, poor fit]	–
CN(Cc1ccco1)S(=O)(=O)c1nnc(NC(=O)c2cccc(Cl)c2)s1	inconclusive: 50.1 µM [inhibitor, partial curve, poor fit]	–
CCc1ccc(/C=C2\SC(=S)N(CCCC(=O)N3CCN(C)CC3)C2=O)cc1	inconclusive: 44.7 µM [inhibitor, partial curve, poor fit]	–
CCCCC(=O)Nc1ccc2nc(N3CCN(CC)CC3)cc(C)c2c1	–	inactive: -57.5%
O=C(Nc1nc(-c2cccc([N+](=O)[O-])c2)cs1)c1cccc([N+](=O)[O-])c1C(=O)O	inconclusive: 100 µM [inhibitor, partial curve, poor fit]	–
NS(=O)(=O)c1ccc(NC(=O)CSC2CCCCC2)cc1	–	inactive: 34.5%
Cc1ccc(NC(=O)Cn2c(=O)oc3cc(S(=O)(=O)N4CCCCCC4)ccc32)cc1Cl	inconclusive: 126 µM [inhibitor, partial curve, poor fit]	–
O=C(Nc1ccc(O)cc1)c1csc(NC2CC2)n1	inconclusive: 2.51 µM [inhibitor, full curve, poor fit]	–
O=c1[nH][nH]c2c1[C@H](c1ccc(F)cc1)O[C@H](C1CCCCC1)C2	inconclusive: 112 µM [inhibitor, single point]	–

Sorted by formula weight (ascending): three of the compounds above
Compound	Potency	activity change, negative = inhibition
NS(=O)(=O)c1ccc(NC(=O)CSC2CCCCC2)cc1	–	inactive: 34.5%
CCCCC(=O)Nc1ccc2nc(N3CCN(CC)CC3)cc(C)c2c1	–	inactive: -57.5%
COc1cc(CN2CCCC(CO)(Cc3cccc(Cl)c3)C2)cc(OC)c1O (stereo not drawn)	inconclusive: 0.316 µM [inhibitor, full curve, poor fit]	–
